# From article PMC7819943, “Rice protein-binding microarrays: a tool to detect cis-acting elements near promoter regions in rice”
# Amino acid sequences for entries named in this document (tags omitted).
# UniProt Q0JBA9, entry or part of it: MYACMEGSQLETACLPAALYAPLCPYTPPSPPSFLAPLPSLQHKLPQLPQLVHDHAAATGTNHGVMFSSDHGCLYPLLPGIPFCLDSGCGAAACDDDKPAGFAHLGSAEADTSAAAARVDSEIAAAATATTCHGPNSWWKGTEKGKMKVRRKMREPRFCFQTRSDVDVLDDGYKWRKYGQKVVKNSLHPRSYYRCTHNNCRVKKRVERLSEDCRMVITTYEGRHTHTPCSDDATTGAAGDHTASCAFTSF
# This is one part of the list.
# Molecular target: OsWRKY34 (Oryza sativa, UniProt Q0JBA9 1-250)
# Test: protein-binding microarray (RPBM); PBS, 2% BSA, 51.3 ng/ul salmon testes DNA, 50 uM zinc acetate, 200 nM TF, 25 C, 1 h; high values mean tight binding
# Conditions: protein: recombinant; tags: N-terminal polyhistidine and DsRed monomer fusion (pET32a); label: CyDye5-dUTP incorporated in the synthesized complementary strand; 3' TTTTT single-stranded linker to array surface; dsDNA, one strand shown
# Procedure, shortened: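 Binding signal here means per-feature fluorescence intensity in arbitrary units. The values were read on an Axon 4000B scanner after a custom Agilent array, double-stranded by primer extension with Cy5-dUTP, was incubated with 200 nM protein at 25 °C for 1 h in PBS with 2% BSA, salmon testes DNA and 50 µM zinc acetate, then washed. The proteins were transcription factors with an N-terminal polyhistidine tag and DsRed, expressed in E. coli BL21-CodonPlus and purified on Ni–NTA.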
row,Sequence,binding signal
1,CACCATCCATGCATATGCATCTTGTAGTTATTGCTTGCTCCGGAGTCACCTAGTGCAG,9580 fluorescence intensity (a.u.)
2,TTCCGCTTCTATAAATACCTCTCCCATTTCGCAACTTTTCCGGAGTCACCTAGTGCAG,9610 fluorescence intensity (a.u.)
3,CGTCTTCGTCTCCGGCCGCCTCTCCGCCTCCACTCTTCCTCGGAGTCACCTAGTGCAG,9690 fluorescence intensity (a.u.)
4,ACTGTGCCAACCTCTGGTTTTGGTTTTTTCCGGTTGAACCCGGAGTCACCTAGTGCAG,8800 fluorescence intensity (a.u.)
5,TTTATTATCCTTGTCAGCTGTAGCCCATCGAATTTCAACGCGGAGTCACCTAGTGCAG,9560 fluorescence intensity (a.u.)
6,TACAACTTTGTTTCAAACAACTTTTTCACATAAGTTCATTCGGAGTCACCTAGTGCAG,8180 fluorescence intensity (a.u.)
7,GTTTCAACCTCTTGGTAACTTTCCTTTGAGTGTATCTCTCCGGAGTCACCTAGTGCAG,8210 fluorescence intensity (a.u.)
8,GGATGCAAAGGTGTAAAGGGTTGAAGGTTCGATCGAGATACGGAGTCACCTAGTGCAG,9640 fluorescence intensity (a.u.)
9,AAGACGTTTTGACTTTGGTTAAAGTCAAACTGTTTTAAATCGGAGTCACCTAGTGCAG,10200 fluorescence intensity (a.u.)
10,CGCTGTCCCCGCCCACGCGGCGACGCCACGTGTCCCCACCCGGAGTCACCTAGTGCAG,8480 fluorescence intensity (a.u.)
11,ATGGGCCCCACATGTCAGCTGGCCACTTCAGCTTCATACCCGGAGTCACCTAGTGCAG,9520 fluorescence intensity (a.u.)
12,TCTACTTATCTAATGATCTTAATTCTGATGTTGTACATGTCGGAGTCACCTAGTGCAG,9180 fluorescence intensity (a.u.)
13,GCTCTCTGTTCATCCTCTTCCTTCCAAAATCCCCAAAATCCGGAGTCACCTAGTGCAG,9160 fluorescence intensity (a.u.)
14,AAGCACAGGACTACACCTTTTTGTCCCCATTTTTTTTGTACGGAGTCACCTAGTGCAG,8350 fluorescence intensity (a.u.)
15,GGTTGGCGGGAGCGGCGATTCGGCGGCGGGAGGGCGCTAGCGGAGTCACCTAGTGCAG,10100 fluorescence intensity (a.u.)
16,GTTTTCGTCTCGAACCGACACCTTTTGTACGTTTTTTTTTCGGAGTCACCTAGTGCAG,10500 fluorescence intensity (a.u.)
17,TTTGAGTTTTTCATGTACTGTTTGACCACTCGTCTTATTACGGAGTCACCTAGTGCAG,10600 fluorescence intensity (a.u.)
18,ACCATGATTCCTTAATCCCCTTCACCTCGTCGATGCTTACCGGAGTCACCTAGTGCAG,10600 fluorescence intensity (a.u.)
19,GCGCCAAGCCGGCCTCCATCTCCGCCGCCCGCGCCTCTCGCGGAGTCACCTAGTGCAG,9170 fluorescence intensity (a.u.)
20,AGTTGTACTTACATTTGCCTGATATGAAGCATTTAATCTTCGGAGTCACCTAGTGCAG,8200 fluorescence intensity (a.u.)
21,GGGGAAATTTTCACGAGGGAGAGGGAGGGGAGGGATATTTCGGAGTCACCTAGTGCAG,23200 fluorescence intensity (a.u.)

row,Sequence,binding signal
1,ATATACTACCTCCATATTTTAATGTATGACGCCGTTGACTCGGAGTCACCTAGTGCAG,8860 fluorescence intensity (a.u.)
2,TTTTTCCCTGTTCATTGTTCCTGTGCCACTTTGATCCATACGGAGTCACCTAGTGCAG,9550 fluorescence intensity (a.u.)
3,ATGTTGGCAGGCTCGACTGTAATGGTGTTGTTCTGTTTCTCGGAGTCACCTAGTGCAG,8830 fluorescence intensity (a.u.)
4,TCAGTGGATTTGCAGCTTGAGTCCTTTATTATGTTTTCCCCGGAGTCACCTAGTGCAG,8800 fluorescence intensity (a.u.)
5,CCTATCTACTGTCGTCGCGTCCTCCTCCTTCTCCGGTCCTCGGAGTCACCTAGTGCAG,8340 fluorescence intensity (a.u.)
6,AAGCATTTCTTGTTGACTTTAAATGCCTGTTCACTTTGATCGGAGTCACCTAGTGCAG,9500 fluorescence intensity (a.u.)
7,AGGTAGAGAGCAGAGCATATGCAGAGCAGGGGAAGGGGCGCGGAGTCACCTAGTGCAG,8090 fluorescence intensity (a.u.)
8,GCTTCTTTCCTTTTCATTGTTATGCCTCCTGAATCCTGACCGGAGTCACCTAGTGCAG,9000 fluorescence intensity (a.u.)
9,AATCATTCACCTGCCTAGCTATGAGCTCCATGATATATCCCGGAGTCACCTAGTGCAG,8770 fluorescence intensity (a.u.)
10,CGTGGTTTTTCTCTCCTACTTTGGGAGGGTTTTTCACGTTCGGAGTCACCTAGTGCAG,10300 fluorescence intensity (a.u.)
11,ATCCCAATCTTCCCCTGCCCACATCTGCTTCCCAGCATCCCGGAGTCACCTAGTGCAG,8720 fluorescence intensity (a.u.)
12,TTCTCTGTCTTCCCGTTGTGTTTGGAAAGAAACTGTTTGTCGGAGTCACCTAGTGCAG,9660 fluorescence intensity (a.u.)
13,ATAGGGGAGGAGGGGCGAGGCGTGGAGGGGACCGGGGACGCGGAGTCACCTAGTGCAG,10300 fluorescence intensity (a.u.)
14,TACACGTCACCACCCGACTCGTCTCCTCTTGTCTCTCTTCCGGAGTCACCTAGTGCAG,8930 fluorescence intensity (a.u.)
15,TGTGCATTTTTTGTCAAAGAAGACCATCGTGGTTCATGTCCGGAGTCACCTAGTGCAG,9230 fluorescence intensity (a.u.)
16,GCTACTTTGCGCTCGCGTCGGCGTCGGCTTCTGTCTCCGACGGAGTCACCTAGTGCAG,12500 fluorescence intensity (a.u.)
17,AGGGTCTTTTTTTTTTTTCTGGGCATGTGGTTTTGACAAGCGGAGTCACCTAGTGCAG,10400 fluorescence intensity (a.u.)
18,TCCCTCTCGTCAATCTCTCTCTCTCTCTCTCTCTCTCTCTCGGAGTCACCTAGTGCAG,8620 fluorescence intensity (a.u.)
19,ATCCGCAGACCAAGTCAACACTGCTACGTGAACACCACATCGGAGTCACCTAGTGCAG,9850 fluorescence intensity (a.u.)
20,AATGGGCTGTAGTGTACTCCTCCAACCTTTTCGCGCCGGCCGGAGTCACCTAGTGCAG,9480 fluorescence intensity (a.u.)
21,CTTTTGCAGACGGTCTTTATAACTTTGAATGGATCTTGGACGGAGTCACCTAGTGCAG,8810 fluorescence intensity (a.u.)

# Taken from the results shown (4 entries):
row,Sequence,binding signal
10,CGCTGTCCCCGCCCACGCGGCGACGCCACGTGTCCCCACCCGGAGTCACCTAGTGCAG,8480 fluorescence intensity (a.u.)
11,ATGGGCCCCACATGTCAGCTGGCCACTTCAGCTTCATACCCGGAGTCACCTAGTGCAG,9520 fluorescence intensity (a.u.)
12,TCTACTTATCTAATGATCTTAATTCTGATGTTGTACATGTCGGAGTCACCTAGTGCAG,9180 fluorescence intensity (a.u.)
13,GCTCTCTGTTCATCCTCTTCCTTCCAAAATCCCCAAAATCCGGAGTCACCTAGTGCAG,9160 fluorescence intensity (a.u.)
